Reference: PubChem BioAssay AID504774 (Drosophila RNAi Screening Center, 2011)

Screen: 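Fly genes whose loss alters survival after alkylation damage to DNA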 (primary screen)
System: Drosophila Kc167 cells
Reagent: long dsRNA against Drosophila genes, about 0.25 µg dsRNA per well
Timing: about 6 days: 3 days knock-down, then 3 days with or without MMS
Treatment: methyl methanesulphonate 0.004% (w/v) for 3 days after knock-down
Measurement: 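ATP-dependent luminescence as a measure of live cells in MMS-exposed wells, quantile normalised within each plate, with replicate values also given as a mean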
Direction: mean viability with MMS and viability with MMS: higher = more surviving cells after MMS
The screen tested about 23,000 reagents; shown is an unselected part of those that have a named target and a result. 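Values are quantile-normalised luminescence on an arbitrary scale; higher means more cells surviving MMS.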 The numbers tell different reagents against one gene apart. A plus sign joins genes that one reagent is predicted to hit. Not all columns of the deposit are shown.

Which result is listed for CG33125?
mean viability with MMS: 3.49e6; viability with MMS, replicate 1: 3.99e6

What did the screen give for CG10479?
mean viability with MMS: 3.52e6; viability with MMS, replicate 1: 3.96e6

With CG11912, how do the results read?
mean viability with MMS: 3.47e6; viability with MMS, replicate 1: 3.94e6

What is on record for CG13088?
mean viability with MMS: 3.55e6; viability with MMS, replicate 1: 4.20e6

With CG34011, what was measured?
mean viability with MMS: 3.45e6; viability with MMS, replicate 1: 4.05e6

How did the screen score CG14654 (retired record)?
mean viability with MMS: 3.38e6; viability with MMS, replicate 1: 3.76e6

What is on record for CG5665?
mean viability with MMS: 3.65e6; viability with MMS, replicate 1: 4.23e6

What did the screen give for CG6788 + CR32496?
mean viability with MMS: 3.58e6; viability with MMS, replicate 1: 4.11e6

How did the screen score CG12391?
mean viability with MMS: 3.52e6; viability with MMS, replicate 1: 4.08e6

What is on record for Tcs5?
mean viability with MMS: 3.46e6; viability with MMS, replicate 1: 4.03e6

For CG33467 #1, what does the deposit list?
mean viability with MMS: 3.64e6; viability with MMS, replicate 1: 4.06e6

For CG33467 #2, what does the deposit list?
mean viability with MMS: 3.56e6; viability with MMS, replicate 1: 3.96e6

With CG4716, how do the results read?
mean viability with MMS: 3.65e6; viability with MMS, replicate 1: 4.17e6

With Sgs5bis, what does the deposit list?
mean viability with MMS: 3.29e6; viability with MMS, replicate 1: 3.71e6

With Zip42C.2, how do the results read?
mean viability with MMS: 3.45e6; viability with MMS, replicate 1: 4.01e6

How did the screen score ND-SGDH?
mean viability with MMS: 3.50e6; viability with MMS, replicate 1: 3.95e6

Which result is listed for CG1701?
mean viability with MMS: 3.55e6; viability with MMS, replicate 1: 4.09e6

What is on record for CG33307?
mean viability with MMS: 3.37e6; viability with MMS, replicate 1: 3.58e6

For Mpv17, how do the results read?
mean viability with MMS: 3.66e6; viability with MMS, replicate 1: 4.11e6

For CG11588 #1, what was measured?
mean viability with MMS: 3.51e6; viability with MMS, replicate 1: 3.98e6

With CG11588 #2, what does the deposit list?
mean viability with MMS: 3.64e6; viability with MMS, replicate 1: 4.12e6

How did the screen score CG43163 #1?
mean viability with MMS: 3.55e6; viability with MMS, replicate 1: 3.82e6

What did the screen give for CG43163 #2?
mean viability with MMS: 3.69e6; viability with MMS, replicate 1: 4.13e6

How did the screen score Ask1 #1?
mean viability with MMS: 3.48e6; viability with MMS, replicate 1: 3.82e6

How did the screen score Ask1 #2?
mean viability with MMS: 3.37e6; viability with MMS, replicate 1: 3.98e6

With CG4004 #1, what was measured?
mean viability with MMS: 3.25e6; viability with MMS, replicate 1: 2.81e6

For CG4004 #2, what does the deposit list?
mean viability with MMS: 3.59e6; viability with MMS, replicate 1: 4.14e6

For Mtmr6, what was measured?
mean viability with MMS: 3.51e6; viability with MMS, replicate 1: 3.93e6

Which result is listed for Eps-15?
mean viability with MMS: 3.23e6; viability with MMS, replicate 1: 2.49e6

How did the screen score spel1?
mean viability with MMS: 3.59e6; viability with MMS, replicate 1: 4.01e6

What did the screen give for CG11226?
mean viability with MMS: 3.69e6; viability with MMS, replicate 1: 4.15e6

What is on record for Tsp42Eb + CG30160 #1?
mean viability with MMS: 3.56e6; viability with MMS, replicate 1: 3.97e6

With Tsp42Eb + CG30160 #2, how do the results read?
mean viability with MMS: 3.61e6; viability with MMS, replicate 1: 4.05e6

Which result is listed for mid #1?
mean viability with MMS: 3.49e6; viability with MMS, replicate 1: 3.84e6

What did the screen give for mid #2?
mean viability with MMS: 3.79e6; viability with MMS, replicate 1: 4.20e6
